# Laboratory results published in PubChem BioAssay AID256 (DTP/NCI, 2004).
# The list shows only some results of the screen, not a fair sample: it gathers tests that were run many times, whatever their T/C, doses with no T/C, and many T/C values between a quarter and a half above the control. Other doses and runs of a compound stand elsewhere. T/C is the treated group as % of the vehicle group. Some entries give survivors of the animals treated and no T/C: the source holds a T/C of zero for them, seemingly a mark for toxic or unscored doses. Some survivor counts are full or nearly so, which does not show that the dose was tolerated: the source hardly ever lists a survival T/C far under the control, and the zero likely stands for such cases as well. Survivors were counted at the toxicity check, usually on the fifth day, unless a day is given; later deaths do not show. Schedules are NCI's codes, read here as Q, the interval in days (D) or hours (H), X, the number of doses. Some entries hold several experiments; the results are listed from low to high. Where survival is the endpoint, the PubChem record calls one and a half times the control and up active, and a quarter to a half above the control has no call in these data; cut-offs in other NCI protocols can differ. Counts like (3×) stand for listed records that agree. Some T/C values carry the count of animals alive at the toxicity check (mostly the fifth day); where none is given, no animal had died by that day.
# Test system: CD2F1 mice, L1210 leukemia ip, survival T/C
# Test: NCI In Vivo Anticancer Drug Screen. Data for tumor model L1210 Leukemia (intraperitoneal) in CD2F1 (CDF1) mice
# Conditions: higher T/C = longer survival
# Method in brief: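 Each value reflects a quotient of treated over vehicle control outcomes in mice with a transplanted tumor.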
# [1] = T/C endpoint: mean survival time, dose: 200.0 mg/kg/injection, schedule: Q01DX009 (ip), vehicle: saline with Tween-80
# [2] = T/C endpoint: mean survival time, dose: 400.0 mg/kg/injection, schedule: Q01DX009 (ip), vehicle: saline with Tween-80
# [3] = T/C endpoint: mean survival time, dose: 150.0 mg/kg/injection, schedule: Q01DX001 (ip), vehicle: saline
# [4] = T/C endpoint: mean survival time, dose: 300.0 mg/kg/injection, schedule: Q01DX001 (ip), vehicle: saline
structure (smiles),measurement,setting,value
COc1cc(Br)c(CCNC(=O)Cc2cc(OC)c(OC)cc2Br)cc1OC,survivor count,"T/C endpoint: mean survival time, dose: 400.0 mg/kg/injection, schedule: Q04DX003 (ip), vehicle: saline with Tween-80",6 of 6
C[C@@H]1C[C@H]2[C@@H]3CCC4=CC(=O)C=C[C@]4(C)[C@@]3(F)[C@@H](O)C[C@]2(C)[C@@]1(O)C(=O)CO,T/C,"T/C endpoint: mean survival time, dose: 100.0 mg/kg/injection, schedule: Q01DX009 (ip), vehicle: suspension in saline",132 % of control
CC(c1ccccc1)n1cncc1C(=O)N1CCN(C)CC1 (centres undefined),survivor count,[1],4 of 6
same,survivor count,[2],3 of 6
CNCC(O)c1ccc(O)c(O)c1.[Pt].c1ccc([PH+](c2ccccc2)c2ccccc2)cc1.c1ccc([PH+](c2ccccc2)c2ccccc2)cc1,survivor count,"T/C endpoint: median survival time, dose: 200.0 mg/kg/injection, schedule: Q04DX003 (ip), vehicle: saline with Tween-80",6 of 6
same,survivor count,"T/C endpoint: median survival time, dose: 400.0 mg/kg/injection, schedule: Q04DX003 (ip), vehicle: saline with Tween-80",5 of 6
COC1=CC(=O)C=C(OC)C1=O,survivor count,"T/C endpoint: mean survival time, dose: 32.0 mg/kg/injection, schedule: Q01DX009 (ip), vehicle: saline",2 of 6
CCN(CC)C(=O)Nc1cc(Cl)ccc1Cl,survivor count,"T/C endpoint: mean survival time, dose: 400.0 mg/kg/injection, schedule: Q04DX002 (ip), vehicle: saline with Tween-80",3 of 3
COc1ccc(OC)c(C(=O)CCl)c1,survivor count,[2],5 of 6
CCSC1=[N+](SCC)CCCS1,survivor count,[3],0 of 6
same,survivor count,[4],0 of 6
CC(=O)CC(C)=NCC(C)N=C(C)CC(C)=O.c1cc[c]([Sn][c]2ccccc2)cc1 (centres undefined),survivor count,"T/C endpoint: mean survival time, dose: 10.0 mg/kg/injection, schedule: Q01DX009 (ip), vehicle: saline with Tween-80",3 of 6
same,survivor count,"T/C endpoint: mean survival time, dose: 20.0 mg/kg/injection, schedule: Q01DX001 (ip), vehicle: saline with Tween-80",0 of 6
COc1cccc(C(=O)c2ccncc2)c1OC,survivor count,"T/C endpoint: mean survival time, dose: 50.0 mg/kg/injection, schedule: Q01DX009 (ip), vehicle: water",6 of 6
same,survivor count,"T/C endpoint: mean survival time, dose: 400.0 mg/kg/injection, schedule: Q01DX009 (ip), vehicle: water",3 of 6
CCO/C=C1\SC(=S)N(Cc2ccccc2)C1=O,survivor count,"T/C endpoint: mean survival time, dose: 100.0 mg/kg/injection, schedule: Q01DX009 (ip), vehicle: other",6 of 6
same,survivor count,[1],5 of 6
same,survivor count,[2],1 of 6
CC1(C)N=C(N)N=C(N)N1c1ccc(CCCCc2ccc(Cl)cc2Cl)cc1,survivor count,"T/C endpoint: mean survival time, dose: 25.0 mg/kg/injection, schedule: Q01DX009 (ip), vehicle: saline with Tween-80",4 of 6
NC(=S)c1cn(C2OC(CO)C(O)C2O)c2ncnc(N)c12 (centres undefined),T/C,"T/C endpoint: median survival time, dose: 0.62 mg/kg/injection, schedule: Q01DX009 (ip), vehicle: suspension in saline",125 % of control [5 of 6 alive]
same,T/C,"T/C endpoint: median survival time, dose: 1.25 mg/kg/injection, schedule: Q01DX009 (ip), vehicle: suspension in saline",141 % of control
Cc1ccc(/C=N/N2C(=O)CSC2=S)cc1,survivor count,"T/C endpoint: mean survival time, dose: 300.0 mg/kg/injection, schedule: Q01DX001 (ip), vehicle: other",2 of 6
N/C(CCSc1ccccc1N=Cc1ccccc1O)=N/O,survivor count,"T/C endpoint: mean survival time, dose: 100.0 mg/kg/injection, schedule: Q01DX009 (ip), vehicle: olive oil, sesame oil, peanut oil",4 of 6
CN1CCN(c2ccc3nc(-c4ccc5nc(-c6ccc(O)cc6)[nH]c5c4)[nH]c3c2)CC1,T/C,"T/C endpoint: mean survival time, dose: 6.25 mg/kg/injection, schedule: Q01DX009 (ip), vehicle: saline",130 % of control
same,T/C,"T/C endpoint: mean survival time, dose: 12.5 mg/kg/injection, schedule: Q01DX009 (ip), vehicle: saline",142 % of control
same,T/C,"T/C endpoint: mean survival time, dose: 25.0 mg/kg/injection, schedule: Q01DX009 (ip), vehicle: saline",142 % of control
same,T/C,"T/C endpoint: mean survival time, dose: 100.0 mg/kg/injection, schedule: Q01DX009 (ip), vehicle: saline",134 % of control
same,survivor count,"T/C endpoint: mean survival time, dose: 200.0 mg/kg/injection, schedule: Q01DX009 (ip), vehicle: saline",4 of 6 and 5 of 6
same,T/C,"T/C endpoint: median survival time, dose: 12.5 mg/kg/injection, schedule: Q01DX009 (ip), vehicle: saline",129 % of control
same,T/C,"T/C endpoint: median survival time, dose: 25.0 mg/kg/injection, schedule: Q01DX009 (ip), vehicle: saline, evaluated on day 30",135 % of control
same,T/C,"T/C endpoint: median survival time, dose: 25.0 mg/kg/injection, schedule: Q01DX009 (ip), vehicle: saline, evaluated on day 60",125 and 137 % of control
same,T/C,"T/C endpoint: median survival time, dose: 37.0 mg/kg/injection, schedule: Q01DX005 (ip), vehicle: saline",143 % of control
same,T/C,"T/C endpoint: median survival time, dose: 44.0 mg/kg/injection, schedule: Q01DX009 (ip), vehicle: saline, evaluated on day 45",197 and 555 % of control
same,T/C,"T/C endpoint: median survival time, dose: 44.0 mg/kg/injection, schedule: Q01DX009 (ip), vehicle: saline, evaluated on day 60",127 and 722 % of control
same,T/C,"T/C endpoint: median survival time, dose: 50.0 mg/kg/injection, schedule: Q01DX009 (ip), vehicle: saline",142 % of control
same,T/C,"T/C endpoint: median survival time, dose: 67.0 mg/kg/injection, schedule: Q01DX009 (ip), vehicle: saline, evaluated on day 45",555 % of control (2×)
same,T/C,"T/C endpoint: median survival time, dose: 67.0 mg/kg/injection, schedule: Q01DX009 (ip), vehicle: saline, evaluated on day 60",139 and 722 % of control
same,survivor count,"T/C endpoint: median survival time, dose: 75.0 mg/kg/injection, schedule: Q01DX005 (iv), vehicle: saline",0 of 6
same,T/C,"T/C endpoint: median survival time, dose: 100.0 mg/kg/injection, schedule: Q01DX009 (ip), vehicle: saline, evaluated on day 30",344 % of control
same,T/C,"T/C endpoint: median survival time, dose: 100.0 mg/kg/injection, schedule: Q01DX009 (ip), vehicle: saline, evaluated on day 45",555 % of control (2×)
same,T/C,"T/C endpoint: median survival time, dose: 100.0 mg/kg/injection, schedule: Q01DX009 (ip), vehicle: saline, evaluated on day 60","185, 391, 618, 722 % of control"
same,T/C,"T/C endpoint: median survival time, dose: 125.0 mg/kg/injection, schedule: Q01DX009 (ip), vehicle: saline, evaluated on day 45",555 % of control (2×)
same,T/C,"T/C endpoint: median survival time, dose: 125.0 mg/kg/injection, schedule: Q01DX009 (ip), vehicle: saline, evaluated on day 60",156 and 722 % of control
same,survivor count,"T/C endpoint: median survival time, dose: 150.0 mg/kg/injection, schedule: Q01DX005 (iv), vehicle: saline",0 of 6
same,survivor count,"T/C endpoint: median survival time, dose: 200.0 mg/kg/injection, schedule: Q01DX009 (ip), vehicle: saline",6 of 10
same,survivor count,"T/C endpoint: median survival time, dose: 300.0 mg/kg/injection, schedule: Q01DX005 (ip), vehicle: saline",2 of 6
same,survivor count,"T/C endpoint: median survival time, dose: 300.0 mg/kg/injection, schedule: Q01DX005 (iv), vehicle: saline",0 of 6
CC(=O)Oc1ccc(/C=N/NC(N)=S)nc1,T/C,"T/C endpoint: mean survival time, dose: 9.4 mg/kg/injection, schedule: Q01DX009 (ip), vehicle: saline with Tween-80",136 % of control
same,T/C,"T/C endpoint: mean survival time, dose: 18.8 mg/kg/injection, schedule: Q01DX009 (ip), vehicle: saline with Tween-80",142 % of control
Nc1nc(N)c2cc(CNc3ccc(C(=O)NC(CC(=O)O)C(=O)O)c(Cl)c3)ccc2n1 (centres undefined),T/C,"T/C endpoint: mean survival time, dose: 2.5 mg/kg/injection, schedule: Q01DX001 (ip), vehicle: saline",127 % of control
same,T/C,"T/C endpoint: mean survival time, dose: 9.0 mg/kg/injection, schedule: Q01DX001 (ip), vehicle: saline",146 % of control
same,T/C,"T/C endpoint: mean survival time, dose: 10.0 mg/kg/injection, schedule: Q01DX001 (ip), vehicle: saline",143 % of control
same,T/C,"T/C endpoint: mean survival time, dose: 13.0 mg/kg/injection, schedule: Q01DX001 (ip), vehicle: saline",146 % of control
same,T/C,"T/C endpoint: mean survival time, dose: 30.0 mg/kg/injection, schedule: Q01DX001 (ip), vehicle: saline",141 % of control
same,survivor count,"T/C endpoint: mean survival time, dose: 40.0 mg/kg/injection, schedule: Q01DX001 (ip), vehicle: saline",5 of 6
same,survivor count,"T/C endpoint: mean survival time, dose: 75.0 mg/kg/injection, schedule: Q01DX001 (ip), vehicle: saline",5 of 6
same,survivor count,"T/C endpoint: mean survival time, dose: 80.0 mg/kg/injection, schedule: Q01DX001 (ip), vehicle: saline",6 of 6
same,survivor count,[3],1 of 6
same,survivor count,[4],3 of 6
N=P(N[P+](N)(c1ccccc1)c1ccccc1)(c1ccccc1)c1ccccc1,survivor count,"T/C endpoint: mean survival time, dose: 12.5 mg/kg/injection, schedule: Q01DX009 (ip), vehicle: Klucel (hydroxypropylcellulose) (HPC)",3 of 6
same,survivor count,"T/C endpoint: mean survival time, dose: 25.0 mg/kg/injection, schedule: Q01DX009 (ip), vehicle: Klucel (hydroxypropylcellulose) (HPC)",0 of 6
same,survivor count,"T/C endpoint: mean survival time, dose: 50.0 mg/kg/injection, schedule: Q01DX009 (ip), vehicle: Klucel (hydroxypropylcellulose) (HPC)",0 of 6
O=P(O)(O)C1c2ccccc2-c2ccccc21,survivor count,[2],3 of 6
Cc1ccccc1-c1nc2c([nH]1)c(=O)n(C)c(=O)n2C,survivor count,"T/C endpoint: mean survival time, dose: 100.0 mg/kg/injection, schedule: Q01DX005 (ip), vehicle: distilled water + Tween-80",5 of 6
